From publication PMC3224827 come the findings set out here.

Test [1] deals with T1, hFRMD7-FL-HA (human FERM domain containing protein 7, original form, HA-tagged) (human) (UniProt Q6ZUT3).
T1 sequence: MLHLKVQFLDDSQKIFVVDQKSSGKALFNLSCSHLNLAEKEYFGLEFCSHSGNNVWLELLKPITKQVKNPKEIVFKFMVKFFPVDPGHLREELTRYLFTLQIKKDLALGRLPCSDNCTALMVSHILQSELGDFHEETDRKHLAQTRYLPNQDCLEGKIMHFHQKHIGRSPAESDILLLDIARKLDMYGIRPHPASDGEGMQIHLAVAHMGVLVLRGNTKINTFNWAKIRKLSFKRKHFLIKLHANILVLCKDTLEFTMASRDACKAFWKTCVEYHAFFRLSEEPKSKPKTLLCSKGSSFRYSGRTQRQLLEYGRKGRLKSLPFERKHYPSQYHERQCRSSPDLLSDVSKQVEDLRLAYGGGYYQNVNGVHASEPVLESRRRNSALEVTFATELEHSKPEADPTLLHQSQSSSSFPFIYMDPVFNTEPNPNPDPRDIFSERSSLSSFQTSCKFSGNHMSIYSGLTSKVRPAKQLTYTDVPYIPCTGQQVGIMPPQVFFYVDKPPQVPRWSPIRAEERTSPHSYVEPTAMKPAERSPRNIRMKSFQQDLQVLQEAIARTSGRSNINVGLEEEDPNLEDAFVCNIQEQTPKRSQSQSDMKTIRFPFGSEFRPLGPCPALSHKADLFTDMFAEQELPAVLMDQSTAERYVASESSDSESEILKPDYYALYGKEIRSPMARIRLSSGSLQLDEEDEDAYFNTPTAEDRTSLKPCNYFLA
Briefly: co-IP; NT2 cells transiently co-transfected with hFRMD7-FL-HA and hFRMD7-S-Myc, lysed 48 h after transfection (M-PER); ProFound Co-Immunoprecipitation Kit; IP with anti-HA and blot with anti-Myc, and the reverse; controls: non-specific immunoglobulins, cells with only one construct.

Test [2] deals with hFRMD7-S-Myc (human FRMD7 splice variant with shortened exon 4, Myc-tagged) (human). The description is as above.

These are yes or no findings as the source states them, for the method shown. Binding seen in cells or lysates may run through a third protein. Binding can be weak; no strength is given. Sequences can lack the tags named with a protein.

For the molecule “hFRMD7-S-Myc (human FRMD7 splice variant with shortened exon 4, Myc-tagged)”, in test [1], the binding entry is recorded as “binds”.

B1: hFRMD7-FL-HA (human FERM domain containing protein 7, original form, HA-tagged) (protein, UniProt Q6ZUT3-1 1-714)
chain: MLHLKVQFLDDSQKIFVVDQKSSGKALFNLSCSHLNLAEKEYFGLEFCSHSGNNVWLELLKPITKQVKNPKEIVFKFMVKFFPVDPGHLREELTRYLFTLQIKKDLALGRLPCSDNCTALMVSHILQSELGDFHEETDRKHLAQTRYLPNQDCLEGKIMHFHQKHIGRSPAESDILLLDIARKLDMYGIRPHPASDGEGMQIHLAVAHMGVLVLRGNTKINTFNWAKIRKLSFKRKHFLIKLHANILVLCKDTLEFTMASRDACKAFWKTCVEYHAFFRLSEEPKSKPKTLLCSKGSSFRYSGRTQRQLLEYGRKGRLKSLPFERKHYPSQYHERQCRSSPDLLSDVSKQVEDLRLAYGGGYYQNVNGVHASEPVLESRRRNSALEVTFATELEHSKPEADPTLLHQSQSSSSFPFIYMDPVFNTEPNPNPDPRDIFSERSSLSSFQTSCKFSGNHMSIYSGLTSKVRPAKQLTYTDVPYIPCTGQQVGIMPPQVFFYVDKPPQVPRWSPIRAEERTSPHSYVEPTAMKPAERSPRNIRMKSFQQDLQVLQEAIARTSGRSNINVGLEEEDPNLEDAFVCNIQEQTPKRSQSQSDMKTIRFPFGSEFRPLGPCPALSHKADLFTDMFAEQELPAVLMDQSTAERYVASESSDSESEILKPDYYALYGKEIRSPMARIRLSSGSLQLDEEDEDAYFNTPTAEDRTSLKPCNYFLA
On to B1, for which the binding entry in test [2] is given as “binds”.
